Results deposited as PubChem BioAssay AID504808 (Drosophila RNAi Screening Center, 2011)
In all, the deposit lists about 21,000 reagents; shown is an unselected part of those that have a named target and a result. Of all reagents, 18 (0.084%) were called active. 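Raw counts without plate normalisation, one of two replicates; the ratio scores behind the calls were not deposited.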 Reagents against one gene are numbered here. No sequences are given here. The record does not give: the amount of reagent, the time to read-out.

Purpose: 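Genes whose loss lifts activity of an E2F-responsive reporter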 (primary screen)
Cells: Drosophila S2 cells
Reagent: long dsRNA against Drosophila genes
Measured: 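Firefly luciferase driven by E2F sites, normalised to Renilla luciferase on the same minimal promoter, measured by plate reader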
Reading the numbers: E2F firefly: higher = more E2F reporter activity; Renilla normaliser: higher = more normaliser reporter signal
Active means: 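Called active if the normalised E2F reporter went up by over 50%; the cutoff is arbitrary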

Target gene | reagent | E2F firefly, rep 1 | Renilla normaliser, rep 1 | activity call
Ugt35D1 (GeneID 43708) | 1 | 58543 | 3825 | inactive
NimC4 (GeneID 34824) | 1 | 1.02e5 | 4836 | inactive
CG14641 (GeneID 40529) | 1 | 71190 | 4506 | inactive
pkaap (GeneID 34957) | 1 | 1.01e5 | 4500 | inactive
CG10126 (GeneID 41579) | 1 | 73682 | 3703 | inactive
CG7183 (GeneID 42181) | 1 | 71608 | 3492 | inactive
CG34160 (GeneID 5740175) | 1 | 1.41e5 | 6166 | inactive
trus (GeneID 41540) | 1 | 1.51e5 | 7632 | inactive
CenB1A (GeneID 42735) | 1 | 1.00e5 | 5396 | inactive
VhaAC45RP (GeneID 318563) | 1 | 50171 | 3481 | inactive
Gart (GeneID 33986) | 1 | 1.54e5 | 5005 | inactive
Targ1 (GeneID 40340) | 1 | 1.37e5 | 6981 | inactive
mRpL15 (GeneID 40261) | 1 | 70191 | 4214 | inactive
Reck (GeneID 39629) | 1 | 68748 | 3458 | inactive
Reck (GeneID 39629) | 2 | 1.60e5 | 7887 | inactive
GstT4 (GeneID 32299) | 1 | 7883 | 844 | inactive
CG7798 (GeneID 36798) | 1 | 1.50e5 | 5543 | inactive
Dh44-R2 (GeneID 36368) | 1 | 1.02e5 | 4209 | inactive
Dh44-R2 (GeneID 36368) | 2 | 1.01e5 | 4350 | inactive
unc-119 (GeneID 31664) | 1 | 42650 | 3931 | inactive
Rpn2 (GeneID 43449) | 1 | 1296 | 1140 | inactive
fog (GeneID 33148) | 1 | 1.73e5 | 5601 | inactive
CG14131 (GeneID 39328) | 1 | 1.07e5 | 7148 | inactive
Lmx1a (GeneID 39406) | 1 | 1.39e5 | 7467 | inactive
Lmx1a (GeneID 39406) | 2 | 76280 | 4801 | inactive
CR33319 (GeneID 3772025) | 1 | 1.20e5 | 5506 | inactive
CG9123 (GeneID 32462) | 1 | 1.36e5 | 5222 | inactive
Rad51D (GeneID 35937) | 1 | 1.37e5 | 4730 | inactive

Next part (4 carried over from the part before).
Target gene | reagent | E2F firefly, rep 1 | Renilla normaliser, rep 1 | activity call
Lmx1a (GeneID 39406) | 2 | 76280 | 4801 | inactive
CR33319 (GeneID 3772025) | 1 | 1.20e5 | 5506 | inactive
CG9123 (GeneID 32462) | 1 | 1.36e5 | 5222 | inactive
Rad51D (GeneID 35937) | 1 | 1.37e5 | 4730 | inactive
SkpC (GeneID 32996) | 1 | 1.43e5 | 5354 | inactive
CG9119 (GeneID 38124) | 1 | 89368 | 3612 | inactive
CG4610 (GeneID 37571) | 1 | 1.05e5 | 3812 | inactive
CG46301 (GeneID 34829) | 1 | 96100 | 4181 | inactive
CG9117 (GeneID 33846) | 1 | 1.44e5 | 4540 | inactive
Or43b (GeneID 35743) | 1 | 1.48e5 | 5291 | inactive
zen2 (GeneID 40827) | 1 | 1.17e5 | 6954 | inactive
CG12470 (GeneID 30977) | 1 | 1.25e5 | 5761 | inactive
Syb (GeneID 36080) | 1 | 2766 | 190 | inactive
Ugt35C1 (GeneID 53507) | 1 | 89021 | 5901 | inactive
CG9330 (GeneID 40131) | 1 | 1.43e5 | 6553 | inactive
CG13133 (GeneID 34342) | 1 | 1.55e5 | 5094 | inactive
Csp (GeneID 40459) | 1 | 85060 | 3639 | inactive
CG33966 (GeneID 3885642) | 1 | 90010 | 4065 | inactive
fu (GeneID 32855) | 1 | 1.06e5 | 4422 | inactive
CG30416 (GeneID 246603) | 1 | 1.07e5 | 4267 | inactive
CG15177 (GeneID 40810) | 1 | 1.26e5 | 5489 | inactive
CG11141 (GeneID 35672) | 1 | 89480 | 3625 | inactive
Mlh1 (GeneID 35796) | 1 | 2725 | 183 | inactive
Syx1A (GeneID 42854) | 1 | 87446 | 6385 | inactive
Sgs5bis (GeneID 42113) | 1 | 96688 | 4962 | inactive
beat-VI (GeneID 43377) | 1 | 1.18e5 | 6151 | inactive
beat-VI (GeneID 43377) | 2 | 1.19e5 | 6014 | inactive
Sirt7 (GeneID 43433) | 1 | 1205 | 896 | inactive
simj (GeneID 39212) | 1 | 83891 | 3795 | inactive
CG13724 (GeneID 39927) | 1 | 1.17e5 | 5802 | inactive
RpLP1 (GeneID 33214) | 1 | 1.23e5 | 5851 | inactive
GstD1 (GeneID 41503) | 1 | 1.42e5 | 6617 | inactive
CG31689 (GeneID 326154) | 1 | 1.65e5 | 6492 | inactive
